The assay deals with V5-BirA-Lamin B1 (Lamin B1 with an N-terminal V5 epitope tag and mini-Turbo BirA) (UniProt P20700). In words: proximity labelling.

Amino acid sequences for entries named in this document (tags omitted).
UniProt P20700: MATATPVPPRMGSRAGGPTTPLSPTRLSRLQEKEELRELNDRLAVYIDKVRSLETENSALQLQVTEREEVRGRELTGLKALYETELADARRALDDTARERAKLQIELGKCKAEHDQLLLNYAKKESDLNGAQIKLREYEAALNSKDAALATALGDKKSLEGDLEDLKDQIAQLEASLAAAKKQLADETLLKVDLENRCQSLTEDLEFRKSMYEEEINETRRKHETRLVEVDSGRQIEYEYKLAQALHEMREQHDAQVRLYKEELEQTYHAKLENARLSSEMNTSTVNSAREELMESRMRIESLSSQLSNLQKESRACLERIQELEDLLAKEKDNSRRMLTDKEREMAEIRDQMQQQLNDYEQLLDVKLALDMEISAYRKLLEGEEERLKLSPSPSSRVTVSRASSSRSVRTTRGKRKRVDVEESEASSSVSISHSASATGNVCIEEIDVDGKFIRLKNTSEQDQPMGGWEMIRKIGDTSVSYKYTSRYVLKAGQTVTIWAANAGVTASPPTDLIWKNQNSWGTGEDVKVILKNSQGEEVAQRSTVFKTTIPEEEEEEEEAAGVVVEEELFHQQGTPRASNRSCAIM

These are yes or no findings as the source states them, for the method shown. Binding seen in cells or lysates may run through a third protein. These calls come from enrichment with a bait or labelling near it, and not all partners need be listed.

For hnRNPK (from UniProt P61978 1-463), the binding entry was “binds”.

The values are drawn from publication doi:10.1101/2025.08.13.670143.
